# Laboratory results reported in the supplement of paper PMC12823440, “Inhibitors supercharge kinase turnover through native proteolytic circuits” (Nature, 2025).
# Chains of the proteins cited; added tags and fusions are not shown. Lines headed by an entry give the natural chain unless they say otherwise; changes in a name come on top.
# UniProt O75460: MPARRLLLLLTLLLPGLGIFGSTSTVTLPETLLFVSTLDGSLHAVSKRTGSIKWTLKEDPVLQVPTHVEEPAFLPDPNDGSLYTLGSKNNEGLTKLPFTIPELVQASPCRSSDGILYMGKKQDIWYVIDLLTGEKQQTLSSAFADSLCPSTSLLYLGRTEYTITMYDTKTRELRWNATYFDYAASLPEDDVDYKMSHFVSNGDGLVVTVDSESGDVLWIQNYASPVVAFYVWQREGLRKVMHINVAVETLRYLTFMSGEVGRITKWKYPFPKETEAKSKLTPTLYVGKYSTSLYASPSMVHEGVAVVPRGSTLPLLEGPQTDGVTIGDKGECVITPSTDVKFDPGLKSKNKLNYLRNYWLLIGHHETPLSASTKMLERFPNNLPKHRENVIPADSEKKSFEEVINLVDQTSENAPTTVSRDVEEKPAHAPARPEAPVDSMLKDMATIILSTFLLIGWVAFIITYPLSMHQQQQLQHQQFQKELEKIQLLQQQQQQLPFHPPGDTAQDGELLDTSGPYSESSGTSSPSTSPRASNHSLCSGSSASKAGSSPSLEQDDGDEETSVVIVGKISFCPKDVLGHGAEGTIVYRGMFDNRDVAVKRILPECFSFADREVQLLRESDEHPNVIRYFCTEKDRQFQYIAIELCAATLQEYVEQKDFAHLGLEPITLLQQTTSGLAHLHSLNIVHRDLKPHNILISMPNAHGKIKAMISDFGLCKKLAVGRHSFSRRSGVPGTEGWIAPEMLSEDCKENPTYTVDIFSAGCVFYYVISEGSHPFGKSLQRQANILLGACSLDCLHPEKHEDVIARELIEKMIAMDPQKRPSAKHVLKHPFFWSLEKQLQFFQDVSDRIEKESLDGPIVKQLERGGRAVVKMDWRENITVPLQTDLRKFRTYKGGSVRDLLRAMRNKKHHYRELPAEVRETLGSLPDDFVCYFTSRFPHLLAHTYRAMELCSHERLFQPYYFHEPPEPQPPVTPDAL
# UniProt P11362, whole entry, looked up: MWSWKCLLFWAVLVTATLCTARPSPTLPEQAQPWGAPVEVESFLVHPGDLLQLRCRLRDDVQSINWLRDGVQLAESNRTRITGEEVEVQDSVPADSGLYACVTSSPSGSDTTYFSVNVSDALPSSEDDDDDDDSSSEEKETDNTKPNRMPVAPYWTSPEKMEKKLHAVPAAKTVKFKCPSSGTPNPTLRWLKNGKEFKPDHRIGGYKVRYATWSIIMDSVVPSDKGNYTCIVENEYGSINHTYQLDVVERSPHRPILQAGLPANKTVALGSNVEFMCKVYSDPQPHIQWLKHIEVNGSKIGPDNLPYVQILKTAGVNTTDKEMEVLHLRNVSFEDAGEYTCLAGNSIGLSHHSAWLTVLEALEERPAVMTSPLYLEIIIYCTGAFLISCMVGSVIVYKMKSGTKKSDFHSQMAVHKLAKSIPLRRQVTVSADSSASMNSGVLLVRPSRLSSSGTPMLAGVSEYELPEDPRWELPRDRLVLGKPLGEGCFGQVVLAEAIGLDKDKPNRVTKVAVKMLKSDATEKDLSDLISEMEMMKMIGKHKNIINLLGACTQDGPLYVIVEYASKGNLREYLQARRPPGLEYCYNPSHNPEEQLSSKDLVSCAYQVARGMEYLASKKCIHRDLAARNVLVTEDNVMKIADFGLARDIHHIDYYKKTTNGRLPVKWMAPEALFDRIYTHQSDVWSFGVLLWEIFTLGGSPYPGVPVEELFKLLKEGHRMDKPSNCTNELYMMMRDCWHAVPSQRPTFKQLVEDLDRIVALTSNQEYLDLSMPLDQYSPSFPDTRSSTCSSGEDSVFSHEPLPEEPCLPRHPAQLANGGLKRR
# UniProt P36888, whole entry: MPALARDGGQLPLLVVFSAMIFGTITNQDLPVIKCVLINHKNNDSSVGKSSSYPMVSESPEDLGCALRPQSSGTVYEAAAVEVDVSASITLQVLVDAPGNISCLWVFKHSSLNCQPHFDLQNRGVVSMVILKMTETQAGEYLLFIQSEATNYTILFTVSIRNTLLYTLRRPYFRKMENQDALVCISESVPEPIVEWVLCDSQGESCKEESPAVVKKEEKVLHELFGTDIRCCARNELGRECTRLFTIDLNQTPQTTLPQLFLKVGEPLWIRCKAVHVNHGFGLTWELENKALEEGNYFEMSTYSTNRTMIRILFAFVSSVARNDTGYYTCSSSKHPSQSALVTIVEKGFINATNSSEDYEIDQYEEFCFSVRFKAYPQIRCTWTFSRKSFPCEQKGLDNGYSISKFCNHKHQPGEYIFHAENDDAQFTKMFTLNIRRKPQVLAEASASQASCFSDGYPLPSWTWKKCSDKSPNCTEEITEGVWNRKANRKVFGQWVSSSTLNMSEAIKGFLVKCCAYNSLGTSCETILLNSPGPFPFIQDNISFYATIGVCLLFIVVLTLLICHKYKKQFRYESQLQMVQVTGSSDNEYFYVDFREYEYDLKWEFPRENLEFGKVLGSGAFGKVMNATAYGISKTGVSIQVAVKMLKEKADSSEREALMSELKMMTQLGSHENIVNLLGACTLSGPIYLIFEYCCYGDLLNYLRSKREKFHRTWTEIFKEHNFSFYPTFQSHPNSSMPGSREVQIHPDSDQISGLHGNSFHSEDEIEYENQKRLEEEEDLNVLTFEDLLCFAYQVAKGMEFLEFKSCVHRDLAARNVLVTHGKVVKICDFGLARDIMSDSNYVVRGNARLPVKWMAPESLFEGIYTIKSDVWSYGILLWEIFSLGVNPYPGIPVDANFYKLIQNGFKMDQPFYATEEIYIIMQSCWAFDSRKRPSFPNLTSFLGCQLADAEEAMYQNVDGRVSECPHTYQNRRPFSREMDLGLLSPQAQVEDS
# UniProt P49840: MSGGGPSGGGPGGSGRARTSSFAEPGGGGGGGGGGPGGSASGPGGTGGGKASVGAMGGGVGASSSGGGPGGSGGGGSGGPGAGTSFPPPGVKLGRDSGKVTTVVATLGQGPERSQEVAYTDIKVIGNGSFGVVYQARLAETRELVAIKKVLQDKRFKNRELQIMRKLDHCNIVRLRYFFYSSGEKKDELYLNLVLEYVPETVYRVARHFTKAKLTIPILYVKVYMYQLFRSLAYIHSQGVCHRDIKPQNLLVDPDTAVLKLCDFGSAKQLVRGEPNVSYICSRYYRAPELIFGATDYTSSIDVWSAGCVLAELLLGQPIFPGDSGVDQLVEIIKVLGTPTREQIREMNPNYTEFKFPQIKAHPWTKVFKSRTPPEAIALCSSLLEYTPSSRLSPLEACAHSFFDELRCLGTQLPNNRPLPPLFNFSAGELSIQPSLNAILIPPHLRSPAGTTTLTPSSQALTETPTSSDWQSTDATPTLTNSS
# UniProt P23458: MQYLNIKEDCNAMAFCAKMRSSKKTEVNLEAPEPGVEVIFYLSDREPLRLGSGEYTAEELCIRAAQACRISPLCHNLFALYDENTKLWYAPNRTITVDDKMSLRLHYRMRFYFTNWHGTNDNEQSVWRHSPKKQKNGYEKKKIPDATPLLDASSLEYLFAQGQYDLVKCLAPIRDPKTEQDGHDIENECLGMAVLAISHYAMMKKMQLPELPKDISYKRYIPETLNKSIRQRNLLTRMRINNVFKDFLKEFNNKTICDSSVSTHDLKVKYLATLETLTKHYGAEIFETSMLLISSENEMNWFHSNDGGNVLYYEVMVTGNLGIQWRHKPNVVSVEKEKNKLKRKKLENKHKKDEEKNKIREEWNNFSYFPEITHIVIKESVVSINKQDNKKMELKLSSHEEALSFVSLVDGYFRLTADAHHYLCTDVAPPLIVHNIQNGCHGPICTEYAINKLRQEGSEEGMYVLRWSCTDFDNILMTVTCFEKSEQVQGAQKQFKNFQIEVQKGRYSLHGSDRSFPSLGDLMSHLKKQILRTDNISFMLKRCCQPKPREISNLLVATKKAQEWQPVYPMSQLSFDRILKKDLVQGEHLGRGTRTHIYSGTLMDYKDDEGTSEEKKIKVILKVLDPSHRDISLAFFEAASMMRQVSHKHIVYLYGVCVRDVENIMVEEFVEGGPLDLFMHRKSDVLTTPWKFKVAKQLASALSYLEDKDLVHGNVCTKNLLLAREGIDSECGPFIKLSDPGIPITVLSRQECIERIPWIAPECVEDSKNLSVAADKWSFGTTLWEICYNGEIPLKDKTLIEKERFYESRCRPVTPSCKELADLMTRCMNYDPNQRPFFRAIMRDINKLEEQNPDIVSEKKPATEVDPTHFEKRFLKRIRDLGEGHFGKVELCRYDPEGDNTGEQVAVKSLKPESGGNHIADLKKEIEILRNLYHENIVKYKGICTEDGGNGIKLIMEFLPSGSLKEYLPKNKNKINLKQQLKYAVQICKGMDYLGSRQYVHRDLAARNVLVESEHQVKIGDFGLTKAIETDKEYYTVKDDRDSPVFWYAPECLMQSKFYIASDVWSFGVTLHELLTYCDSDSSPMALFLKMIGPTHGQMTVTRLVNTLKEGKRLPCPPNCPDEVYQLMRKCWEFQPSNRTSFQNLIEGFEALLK
# UniProt P53667: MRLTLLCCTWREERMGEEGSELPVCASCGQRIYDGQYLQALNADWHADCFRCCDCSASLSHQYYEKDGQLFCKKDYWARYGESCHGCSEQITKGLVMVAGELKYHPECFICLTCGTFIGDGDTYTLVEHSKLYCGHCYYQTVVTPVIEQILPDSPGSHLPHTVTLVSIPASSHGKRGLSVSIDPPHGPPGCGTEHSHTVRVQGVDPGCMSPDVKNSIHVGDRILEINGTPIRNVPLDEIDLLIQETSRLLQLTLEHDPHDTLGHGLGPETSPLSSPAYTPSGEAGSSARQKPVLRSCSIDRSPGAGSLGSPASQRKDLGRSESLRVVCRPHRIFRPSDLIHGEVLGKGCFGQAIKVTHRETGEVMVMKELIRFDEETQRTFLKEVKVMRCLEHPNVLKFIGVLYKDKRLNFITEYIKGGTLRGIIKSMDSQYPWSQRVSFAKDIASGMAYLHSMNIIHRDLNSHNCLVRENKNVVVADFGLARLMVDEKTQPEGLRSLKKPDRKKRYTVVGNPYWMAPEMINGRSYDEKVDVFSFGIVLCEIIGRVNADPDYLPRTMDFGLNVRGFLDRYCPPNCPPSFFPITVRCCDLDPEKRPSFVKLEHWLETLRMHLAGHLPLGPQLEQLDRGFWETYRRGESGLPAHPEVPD
# UniProt Q8IWU2: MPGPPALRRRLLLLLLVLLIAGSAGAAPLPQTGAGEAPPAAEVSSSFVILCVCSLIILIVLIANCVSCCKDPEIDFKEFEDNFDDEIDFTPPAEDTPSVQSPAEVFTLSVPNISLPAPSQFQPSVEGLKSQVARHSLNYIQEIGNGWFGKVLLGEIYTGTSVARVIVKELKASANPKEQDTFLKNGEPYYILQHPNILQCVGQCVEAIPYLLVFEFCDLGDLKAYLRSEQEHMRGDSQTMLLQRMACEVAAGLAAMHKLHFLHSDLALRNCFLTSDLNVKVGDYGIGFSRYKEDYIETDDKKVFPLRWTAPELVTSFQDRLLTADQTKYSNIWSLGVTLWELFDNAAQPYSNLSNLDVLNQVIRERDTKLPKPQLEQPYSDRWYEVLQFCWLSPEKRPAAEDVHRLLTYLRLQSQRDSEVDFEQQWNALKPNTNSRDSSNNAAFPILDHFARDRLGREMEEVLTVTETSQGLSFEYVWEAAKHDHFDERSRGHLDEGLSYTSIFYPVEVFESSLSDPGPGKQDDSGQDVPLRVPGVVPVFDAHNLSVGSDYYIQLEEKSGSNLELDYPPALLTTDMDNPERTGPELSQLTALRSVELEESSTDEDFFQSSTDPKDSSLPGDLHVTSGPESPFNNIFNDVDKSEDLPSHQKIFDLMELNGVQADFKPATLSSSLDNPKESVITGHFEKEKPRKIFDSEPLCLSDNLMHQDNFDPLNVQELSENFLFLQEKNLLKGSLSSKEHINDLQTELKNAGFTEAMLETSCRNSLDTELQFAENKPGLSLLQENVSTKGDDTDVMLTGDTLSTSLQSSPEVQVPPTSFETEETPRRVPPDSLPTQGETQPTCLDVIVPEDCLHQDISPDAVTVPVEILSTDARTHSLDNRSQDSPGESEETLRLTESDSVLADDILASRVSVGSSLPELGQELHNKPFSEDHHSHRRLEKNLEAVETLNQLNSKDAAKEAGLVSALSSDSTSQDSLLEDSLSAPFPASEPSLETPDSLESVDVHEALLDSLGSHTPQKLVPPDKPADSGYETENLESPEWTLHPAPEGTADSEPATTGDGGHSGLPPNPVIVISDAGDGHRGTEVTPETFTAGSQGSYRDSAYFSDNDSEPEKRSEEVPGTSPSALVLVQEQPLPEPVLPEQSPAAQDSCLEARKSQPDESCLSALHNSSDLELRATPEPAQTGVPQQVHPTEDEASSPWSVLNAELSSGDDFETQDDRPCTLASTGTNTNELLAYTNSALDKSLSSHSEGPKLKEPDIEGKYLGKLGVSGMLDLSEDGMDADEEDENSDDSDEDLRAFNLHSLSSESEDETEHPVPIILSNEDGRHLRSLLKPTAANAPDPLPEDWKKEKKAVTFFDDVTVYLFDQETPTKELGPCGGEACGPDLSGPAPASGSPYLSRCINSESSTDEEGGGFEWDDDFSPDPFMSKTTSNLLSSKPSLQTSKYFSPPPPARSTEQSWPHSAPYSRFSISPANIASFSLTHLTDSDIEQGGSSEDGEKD
# Some of the results follow. Hit calls seldom repeat between salt and free forms of one compound.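 Kinases were expressed as nanoluciferase fusions in K562 cells and luminescence was read every 4 h between 2 and 18 h as percent of control, DMSO set to 100% and a positive control to 0%. A time point counts as decreased when the signal drops significantly (2 sigma). The hit call is the authors' own, does not follow from the count of time points alone, and its rule is not shown.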
# Experiments:
# Experiment in all cases: kinase-Nluc reporter destabilization hit call (1 = scored as downregulated) (binary); higher = compound decreases kinase abundance
# Settings in all cases: K562; 2-18 h
# ERN1 = ERN1 (UniProt O75460)
# FGFR1 = FGFR1 (UniProt P11362)
# FGFR2 = FGFR2 (UniProt P21802)
# FGFR3 = FGFR3 (UniProt P22607)
# FGR = FGR (UniProt P09769)
# FLT3 = FLT3 (UniProt P36888)
# FYN = FYN (UniProt P06241)
# GSK3A = GSK3A (UniProt P49840)
# HER2 = HER2 (UniProt P04626)
# INSRR = INSRR (UniProt P14616)
# IRAK3 = IRAK3 (UniProt Q9Y616)
# JAK1 = JAK1 (UniProt P23458)
# LIMK1 = LIMK1 (UniProt P53667)
# LIMK2 = LIMK2 (UniProt P53671)
# LMTK2 = LMTK2 (UniProt Q8IWU2)
# LYN = LYN (UniProt P07948)
# MAP2K1 = MAP2K1 (UniProt Q02750)
# MAP2K2 = MAP2K2 (UniProt P36507)
# MAP4K2 = MAP4K2 (UniProt Q12851)
# LCK = LCK (UniProt P06239)
Compound,kinase-Nluc reporter destabilization hit call (ERN1),kinase-Nluc reporter destabilization hit call (FGFR1),kinase-Nluc reporter destabilization hit call (FGFR2),kinase-Nluc reporter destabilization hit call (FGFR3),kinase-Nluc reporter destabilization hit call (FGR),kinase-Nluc reporter destabilization hit call (FLT3),kinase-Nluc reporter destabilization hit call (FYN),kinase-Nluc reporter destabilization hit call (GSK3A),kinase-Nluc reporter destabilization hit call (HER2),kinase-Nluc reporter destabilization hit call (INSRR),kinase-Nluc reporter destabilization hit call (IRAK3),kinase-Nluc reporter destabilization hit call (JAK1),kinase-Nluc reporter destabilization hit call (LIMK1),kinase-Nluc reporter destabilization hit call (LIMK2),kinase-Nluc reporter destabilization hit call (LMTK2),kinase-Nluc reporter destabilization hit call (LYN),kinase-Nluc reporter destabilization hit call (MAP2K1),kinase-Nluc reporter destabilization hit call (MAP2K2),kinase-Nluc reporter destabilization hit call (MAP4K2),kinase-Nluc reporter destabilization hit call (LCK)
COc1nccc(-c2c(-c3ccc(F)cc3)ncn2C2CCC(O)CC2)n1 (stereo not drawn) (10 µM),inactive: 0,inactive: 0,inactive: 0,inactive: 0,inactive: 0,inactive: 0,inactive: 0,inactive: 0,inactive: 0,inactive: 0,inactive: 0,inactive: 0,inactive: 0,inactive: 0,inactive: 0,inactive: 0,inactive: 0,inactive: 0,inactive: 0,–
Nc1nc(OCC2CCCCC2)c2[nH]cnc2n1 (10 µM),inactive: 0,inactive: 0,inactive: 0,inactive: 0,inactive: 0,inactive: 0,inactive: 0,inactive: 0,inactive: 0,inactive: 0,inactive: 0,inactive: 0,inactive: 0,inactive: 0,inactive: 0,inactive: 0,inactive: 0,inactive: 0,inactive: 0,inactive: 0
Cc1ccc(S(=O)(=O)Nc2nc3ccccc3nc2Nc2ccc3nsnc3c2)cc1 [Pilaralisib analogue] (10 µM),inactive: 0,inactive: 0,inactive: 0,inactive: 0,inactive: 0,active: 1,inactive: 0,inactive: 0,inactive: 0,inactive: 0,inactive: 0,inactive: 0,–,inactive: 0,inactive: 0,inactive: 0,inactive: 0,inactive: 0,inactive: 0,inactive: 0
O=c1c(O)c(-c2ccc(O)c(O)c2)oc2cc(O)cc(O)c12 [Quercetin (dihydrate)] (10 µM),inactive: 0,inactive: 0,inactive: 0,inactive: 0,inactive: 0,inactive: 0,inactive: 0,inactive: 0,inactive: 0,inactive: 0,inactive: 0,inactive: 0,inactive: 0,inactive: 0,inactive: 0,inactive: 0,inactive: 0,inactive: 0,inactive: 0,inactive: 0
C[C@]1(O)C[C@@H](c2nc(-c3ccc4ccc(-c5ccccc5)nc4c3)c3c(N)nccn32)C1 [Linsitinib] (2.5 µM),inactive: 0,inactive: 0,inactive: 0,inactive: 0,inactive: 0,inactive: 0,inactive: 0,inactive: 0,inactive: 0,inactive: 0,inactive: 0,inactive: 0,inactive: 0,inactive: 0,inactive: 0,inactive: 0,inactive: 0,inactive: 0,inactive: 0,inactive: 0
COc1ccc(Oc2cc(NCCC(F)(F)F)c3ncc(-c4ccc(C(=O)NC5CC5)c(C)c4)n3n2)c(F)c1F (2.5 µM),inactive: 0,inactive: 0,inactive: 0,inactive: 0,inactive: 0,inactive: 0,inactive: 0,inactive: 0,inactive: 0,inactive: 0,inactive: 0,inactive: 0,inactive: 0,inactive: 0,inactive: 0,inactive: 0,inactive: 0,inactive: 0,inactive: 0,inactive: 0
FC(F)(F)c1ccc(CNc2ccc(Cc3c[nH]c4ncc(Cl)cc34)cn2)cc1 (10 µM),inactive: 0,inactive: 0,inactive: 0,inactive: 0,inactive: 0,inactive: 0,inactive: 0,inactive: 0,inactive: 0,inactive: 0,inactive: 0,inactive: 0,inactive: 0,inactive: 0,inactive: 0,inactive: 0,inactive: 0,inactive: 0,inactive: 0,inactive: 0
NC(=O)c1ccc(-c2nc(-c3ccccn3)c(-c3ccc4c(c3)OCO4)[nH]2)cc1 (10 µM),inactive: 0,inactive: 0,inactive: 0,inactive: 0,inactive: 0,inactive: 0,inactive: 0,inactive: 0,inactive: 0,inactive: 0,inactive: 0,inactive: 0,inactive: 0,inactive: 0,inactive: 0,inactive: 0,inactive: 0,inactive: 0,inactive: 0,inactive: 0
CCOc1cc2ncc(-c3cc(N)nc(F)c3)n2cc1S(=O)(=O)C(C)(C)C (10 µM),inactive: 0,inactive: 0,inactive: 0,inactive: 0,inactive: 0,inactive: 0,inactive: 0,inactive: 0,inactive: 0,inactive: 0,inactive: 0,inactive: 0,inactive: 0,inactive: 0,inactive: 0,inactive: 0,inactive: 0,inactive: 0,inactive: 0,inactive: 0

# Record cards (already shown). Values in the order: kinase-Nluc reporter destabilization hit call (ERN1)	kinase-Nluc reporter destabilization hit call (FGFR1)	kinase-Nluc reporter destabilization hit call (FGFR2)	kinase-Nluc reporter destabilization hit call (FGFR3)	kinase-Nluc reporter destabilization hit call (FGR)	kinase-Nluc reporter destabilization hit call (FLT3)	kinase-Nluc reporter destabilization hit call (FYN)	kinase-Nluc reporter destabilization hit call (GSK3A)	kinase-Nluc reporter destabilization hit call (HER2)	kinase-Nluc reporter destabilization hit call (INSRR)	kinase-Nluc reporter destabilization hit call (IRAK3)	kinase-Nluc reporter destabilization hit call (JAK1)	kinase-Nluc reporter destabilization hit call (LIMK1)	kinase-Nluc reporter destabilization hit call (LIMK2)	kinase-Nluc reporter destabilization hit call (LMTK2)	kinase-Nluc reporter destabilization hit call (LYN)	kinase-Nluc reporter destabilization hit call (MAP2K1)	kinase-Nluc reporter destabilization hit call (MAP2K2)	kinase-Nluc reporter destabilization hit call (MAP4K2)	kinase-Nluc reporter destabilization hit call (LCK)
# CCOc1cc2ncc(-c3cc(N)nc(F)c3)n2cc1S(=O)(=O)C(C)(C)C (10 µM) as listed: inactive: 0	inactive: 0	inactive: 0	inactive: 0	inactive: 0	inactive: 0	inactive: 0	inactive: 0	inactive: 0	inactive: 0	inactive: 0	inactive: 0	inactive: 0	inactive: 0	inactive: 0	inactive: 0	inactive: 0	inactive: 0	inactive: 0	inactive: 0
# COc1nccc(-c2c(-c3ccc(F)cc3)ncn2C2CCC(O)CC2)n1 (stereo not drawn) (10 µM) as listed: inactive: 0	inactive: 0	inactive: 0	inactive: 0	inactive: 0	inactive: 0	inactive: 0	inactive: 0	inactive: 0	inactive: 0	inactive: 0	inactive: 0	inactive: 0	inactive: 0	inactive: 0	inactive: 0	inactive: 0	inactive: 0	inactive: 0	–
